Laboratory results reported in PMC6303367.
Results are given in words; binding and its absence hold for the method and conditions named. Sequences can lack the tags named with a protein.

Amino acid sequences for entries named in this document (tags omitted). A change or cut given only in a name is not applied to a line headed by its entry.
UniProt P04050: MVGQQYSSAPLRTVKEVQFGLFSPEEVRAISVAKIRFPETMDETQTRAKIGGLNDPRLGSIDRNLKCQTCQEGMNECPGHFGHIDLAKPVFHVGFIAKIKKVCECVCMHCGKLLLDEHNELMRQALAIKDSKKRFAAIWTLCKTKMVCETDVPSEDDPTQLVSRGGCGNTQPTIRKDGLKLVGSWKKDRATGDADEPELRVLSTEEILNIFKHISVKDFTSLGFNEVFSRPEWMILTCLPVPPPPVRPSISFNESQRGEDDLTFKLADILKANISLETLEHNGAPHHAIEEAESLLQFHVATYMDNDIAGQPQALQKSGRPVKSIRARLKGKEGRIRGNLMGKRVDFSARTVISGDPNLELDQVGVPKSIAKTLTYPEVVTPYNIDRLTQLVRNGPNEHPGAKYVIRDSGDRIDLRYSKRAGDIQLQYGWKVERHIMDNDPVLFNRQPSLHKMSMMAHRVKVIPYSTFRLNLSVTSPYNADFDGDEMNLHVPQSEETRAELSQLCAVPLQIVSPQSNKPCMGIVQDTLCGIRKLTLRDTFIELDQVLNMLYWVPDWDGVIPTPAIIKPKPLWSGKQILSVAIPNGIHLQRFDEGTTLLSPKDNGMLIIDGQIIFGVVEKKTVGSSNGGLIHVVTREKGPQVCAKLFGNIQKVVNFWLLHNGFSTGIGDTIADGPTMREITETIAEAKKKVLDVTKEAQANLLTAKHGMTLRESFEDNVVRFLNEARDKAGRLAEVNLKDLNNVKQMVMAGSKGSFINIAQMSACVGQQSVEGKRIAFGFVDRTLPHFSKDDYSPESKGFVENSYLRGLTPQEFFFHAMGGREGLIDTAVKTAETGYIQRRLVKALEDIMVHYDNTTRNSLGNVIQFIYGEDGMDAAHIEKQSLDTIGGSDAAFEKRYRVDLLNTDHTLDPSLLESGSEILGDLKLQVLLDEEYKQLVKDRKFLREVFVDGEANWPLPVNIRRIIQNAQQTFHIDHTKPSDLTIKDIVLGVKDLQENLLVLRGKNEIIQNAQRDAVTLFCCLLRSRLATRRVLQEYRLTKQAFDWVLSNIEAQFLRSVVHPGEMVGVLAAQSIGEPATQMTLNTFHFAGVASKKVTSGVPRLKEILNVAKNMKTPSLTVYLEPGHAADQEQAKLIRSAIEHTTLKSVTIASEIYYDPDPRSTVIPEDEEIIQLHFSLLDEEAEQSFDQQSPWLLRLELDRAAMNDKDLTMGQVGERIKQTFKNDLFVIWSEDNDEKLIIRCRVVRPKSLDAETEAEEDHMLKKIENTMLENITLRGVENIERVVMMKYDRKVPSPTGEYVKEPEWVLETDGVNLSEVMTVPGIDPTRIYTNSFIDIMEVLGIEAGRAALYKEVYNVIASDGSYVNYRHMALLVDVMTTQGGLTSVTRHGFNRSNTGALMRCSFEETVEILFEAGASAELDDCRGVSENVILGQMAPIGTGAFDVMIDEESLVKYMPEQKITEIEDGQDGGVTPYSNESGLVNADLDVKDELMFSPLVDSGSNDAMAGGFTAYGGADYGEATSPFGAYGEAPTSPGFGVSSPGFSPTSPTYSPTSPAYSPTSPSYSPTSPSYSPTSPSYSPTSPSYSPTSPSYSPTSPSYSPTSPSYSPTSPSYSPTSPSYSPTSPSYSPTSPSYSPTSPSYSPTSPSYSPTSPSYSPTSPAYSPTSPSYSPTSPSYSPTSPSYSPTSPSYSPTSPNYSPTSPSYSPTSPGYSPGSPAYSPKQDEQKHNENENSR

Biological target: Saccharomyces cerevisiae RNA polymerase II (Saccharomyces cerevisiae) (UniProt P04050)
Assay: SEC; Pol II-extended NCP-RNA complex incubated with TFIIS (1:0.57, relative to Pol II) and 1 mM NTPs for 30 min at 30 °C, then Superose 6 Increase 3.2/300 in 100 mM NaCl, 3 mM MgCl2, 20 mM Na·HEPES pH 7.5, 4% (v/v) glycerol, 1 mM DTT; peak fractions analysed by SDS-PAGE; both purified

B1: S. cerevisiae TFIIS with an N-terminal GST tag (protein, UniProt P07273 1-309)
chain: MDSKEVLVHVKNLEKNKSNDAAVLEILHVLDKEFVPTEKLLRETKVGVEVNKFKKSTNVEISKLVKKMISSWKDAINKNKRSRQAQQHHQDHAPGNAEDKTTVGESVNGVQQPASSQSDAMKQDKYVSTKPRNSKNDGVDTAIYHHKLRDQVLKALYDVLAKESEHPPQSILHTAKAIESEMNKVNNCDTNEAAYKARYRIIYSNVISKNNPDLKHKIANGDITPEFLATCDAKDLAPAPLKQKIEEIAKQNLYNAQGATIERSVTDRFTCGKCKEKKVSYYQLQTRSADEPLTTFCTCEACGNRWKFS
binding: no binding
